Measurements from article PMC5312400.
Results are given in words; binding and its absence hold for the method and conditions named. In cells and extracts the contact can be indirect. Some entries that bind do so weakly or less than the wild type.

By UniProt entry, the sequences of proteins in these tests, tags left out. Where a name states a change or a piece, a line headed by the entry shows the natural chain unless it says otherwise. Residues count along the entry.
UniProt Q9HCE7: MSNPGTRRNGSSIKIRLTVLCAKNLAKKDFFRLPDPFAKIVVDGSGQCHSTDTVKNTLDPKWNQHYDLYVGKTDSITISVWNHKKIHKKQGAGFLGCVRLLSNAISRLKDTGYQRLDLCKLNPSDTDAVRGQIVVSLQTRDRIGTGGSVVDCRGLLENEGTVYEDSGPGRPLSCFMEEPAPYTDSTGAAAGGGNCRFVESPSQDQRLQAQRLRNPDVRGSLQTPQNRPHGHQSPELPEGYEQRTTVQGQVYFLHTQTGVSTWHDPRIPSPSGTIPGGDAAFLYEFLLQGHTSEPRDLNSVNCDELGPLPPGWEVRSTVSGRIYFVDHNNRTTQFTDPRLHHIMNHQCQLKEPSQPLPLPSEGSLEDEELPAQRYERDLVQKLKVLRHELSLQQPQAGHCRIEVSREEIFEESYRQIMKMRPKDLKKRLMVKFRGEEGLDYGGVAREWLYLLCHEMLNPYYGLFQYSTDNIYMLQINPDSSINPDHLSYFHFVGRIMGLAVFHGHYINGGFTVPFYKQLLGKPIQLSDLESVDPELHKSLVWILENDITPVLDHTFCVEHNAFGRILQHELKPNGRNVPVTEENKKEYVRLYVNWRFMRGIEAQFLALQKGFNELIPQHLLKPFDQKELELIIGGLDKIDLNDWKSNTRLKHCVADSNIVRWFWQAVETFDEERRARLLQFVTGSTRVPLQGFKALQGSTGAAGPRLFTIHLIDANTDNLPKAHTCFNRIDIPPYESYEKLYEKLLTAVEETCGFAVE
UniProt Q93008: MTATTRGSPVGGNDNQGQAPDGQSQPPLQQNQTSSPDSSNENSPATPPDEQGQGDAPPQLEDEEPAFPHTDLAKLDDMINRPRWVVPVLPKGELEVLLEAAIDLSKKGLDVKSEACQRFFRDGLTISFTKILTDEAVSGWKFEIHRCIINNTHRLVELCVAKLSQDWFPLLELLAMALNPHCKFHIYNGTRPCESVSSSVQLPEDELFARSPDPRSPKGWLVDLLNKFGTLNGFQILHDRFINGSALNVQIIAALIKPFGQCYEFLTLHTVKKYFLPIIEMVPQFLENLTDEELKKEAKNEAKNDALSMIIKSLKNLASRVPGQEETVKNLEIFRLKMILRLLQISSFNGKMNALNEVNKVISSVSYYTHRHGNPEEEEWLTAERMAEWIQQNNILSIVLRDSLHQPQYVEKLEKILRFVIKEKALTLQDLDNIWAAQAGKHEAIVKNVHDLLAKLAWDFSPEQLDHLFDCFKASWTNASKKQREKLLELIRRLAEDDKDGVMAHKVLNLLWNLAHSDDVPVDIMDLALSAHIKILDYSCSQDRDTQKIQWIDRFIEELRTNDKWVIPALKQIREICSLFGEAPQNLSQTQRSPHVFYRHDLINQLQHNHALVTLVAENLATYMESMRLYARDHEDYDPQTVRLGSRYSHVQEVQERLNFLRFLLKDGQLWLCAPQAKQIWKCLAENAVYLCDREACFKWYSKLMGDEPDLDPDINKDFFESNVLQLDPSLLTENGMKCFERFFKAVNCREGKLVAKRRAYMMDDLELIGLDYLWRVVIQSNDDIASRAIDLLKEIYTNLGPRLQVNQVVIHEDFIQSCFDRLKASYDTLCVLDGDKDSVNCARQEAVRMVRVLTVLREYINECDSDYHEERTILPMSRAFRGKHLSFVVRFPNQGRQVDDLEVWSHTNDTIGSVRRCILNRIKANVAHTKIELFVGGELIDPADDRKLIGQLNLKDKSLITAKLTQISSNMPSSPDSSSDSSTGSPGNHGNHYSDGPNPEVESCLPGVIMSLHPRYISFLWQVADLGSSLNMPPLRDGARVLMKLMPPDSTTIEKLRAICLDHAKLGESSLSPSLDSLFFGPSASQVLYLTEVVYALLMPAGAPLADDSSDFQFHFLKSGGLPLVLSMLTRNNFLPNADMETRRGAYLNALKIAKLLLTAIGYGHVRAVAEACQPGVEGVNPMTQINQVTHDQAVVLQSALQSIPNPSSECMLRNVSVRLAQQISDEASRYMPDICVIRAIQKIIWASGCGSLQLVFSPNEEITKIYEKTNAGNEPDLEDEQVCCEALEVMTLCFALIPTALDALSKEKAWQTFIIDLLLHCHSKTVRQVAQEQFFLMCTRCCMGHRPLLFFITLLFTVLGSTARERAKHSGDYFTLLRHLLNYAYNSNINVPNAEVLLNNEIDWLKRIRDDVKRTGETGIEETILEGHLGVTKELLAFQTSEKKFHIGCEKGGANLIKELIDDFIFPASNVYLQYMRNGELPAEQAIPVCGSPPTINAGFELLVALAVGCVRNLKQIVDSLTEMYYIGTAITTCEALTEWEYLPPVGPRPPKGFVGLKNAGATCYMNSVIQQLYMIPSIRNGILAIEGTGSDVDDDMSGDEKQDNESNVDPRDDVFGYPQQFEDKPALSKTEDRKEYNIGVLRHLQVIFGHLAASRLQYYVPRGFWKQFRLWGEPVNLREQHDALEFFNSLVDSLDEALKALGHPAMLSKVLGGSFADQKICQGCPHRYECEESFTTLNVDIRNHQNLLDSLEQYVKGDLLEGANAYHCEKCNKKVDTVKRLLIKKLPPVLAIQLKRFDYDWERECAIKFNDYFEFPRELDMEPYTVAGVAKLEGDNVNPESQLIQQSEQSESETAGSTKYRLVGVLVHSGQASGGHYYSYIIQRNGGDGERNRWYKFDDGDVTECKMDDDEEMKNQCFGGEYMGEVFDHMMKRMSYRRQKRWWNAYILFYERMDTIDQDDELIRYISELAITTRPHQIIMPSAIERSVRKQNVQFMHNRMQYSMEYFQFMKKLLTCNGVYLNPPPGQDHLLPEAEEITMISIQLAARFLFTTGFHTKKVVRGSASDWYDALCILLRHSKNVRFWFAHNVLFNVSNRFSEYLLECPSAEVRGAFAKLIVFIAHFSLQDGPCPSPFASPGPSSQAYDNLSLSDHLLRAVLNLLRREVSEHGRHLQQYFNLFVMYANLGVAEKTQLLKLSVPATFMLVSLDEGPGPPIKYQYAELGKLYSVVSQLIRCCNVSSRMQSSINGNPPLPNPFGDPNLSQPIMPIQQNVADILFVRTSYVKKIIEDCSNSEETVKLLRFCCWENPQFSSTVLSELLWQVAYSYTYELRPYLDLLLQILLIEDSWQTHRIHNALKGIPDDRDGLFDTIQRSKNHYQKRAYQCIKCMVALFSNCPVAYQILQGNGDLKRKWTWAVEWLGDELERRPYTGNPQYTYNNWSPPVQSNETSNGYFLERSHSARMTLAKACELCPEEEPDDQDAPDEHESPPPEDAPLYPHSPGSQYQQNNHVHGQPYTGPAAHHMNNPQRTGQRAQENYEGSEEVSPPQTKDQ
UniProt P40337: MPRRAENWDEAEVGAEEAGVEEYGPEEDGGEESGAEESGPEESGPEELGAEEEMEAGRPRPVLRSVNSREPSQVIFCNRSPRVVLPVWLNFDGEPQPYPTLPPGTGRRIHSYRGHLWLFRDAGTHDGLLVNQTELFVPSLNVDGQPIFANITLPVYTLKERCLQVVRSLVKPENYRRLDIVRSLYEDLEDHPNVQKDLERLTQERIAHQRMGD
endogenous pVHL19 (HEK293T): residues 54-213 of P40337

Key:
Flag-tagged HUWE1 = Flag-tagged HUWE1 (UniProt Q7Z6Z7); experiment: co-IP; HEK293T cells transiently transfected with Flag-tagged HUWE1 and HA-tagged pVHL, MG132 treatment; two co-immunoprecipitations
[1] = molecular target: endogenous Smurf1 (CAKI) (human (endogenous in CAKI)) (UniProt Q9HCE7); experiment: co-IP; endogenous proteins, CAKI cell lysates; immunoprecipitation with anti-USP9X or Smurf1 antibodies, then blotted
[2] = molecular target: endogenous USP9X (human (endogenous in 786-0, HEK293T, CAKI)) (UniProt Q93008); experiment: as above
[3] = molecular target: endogenous USP9X (human (endogenous in 786-0, HEK293T, CAKI)) (UniProt Q93008); experiment: co-IP; endogenous proteins, HEK293T cells treated with MG132 (10 μM for 4 hours); immunoprecipitation with anti-USP9X, blot with anti-VHL
[4] = molecular target: HA-tagged pVHL (786-0 cells) (UniProt P40337); experiment: co-IP; 786-0 cells infected with HA empty control or HA-VHL, MG132 10 μM for 4 hours; immunoprecipitation with anti-HA, blot with anti-USP9X and anti-HA; 0.5% NP40 lysis buffer

HA-tagged pVHL (HEK293T, transient) (from UniProt P40337 1-213)
binding (Flag-tagged HUWE1): binds

endogenous pVHL (CAKI) (from UniProt P40337 1-213)
binding [1]: binds | binding [2]: binds

endogenous pVHL19 (HEK293T) (from UniProt P40337-3 1-160)
binding [3]: binds

endogenous USP9X (from UniProt Q93008 1-2554) (enzyme)
binding [4]: binds
